## Percent effect of library compounds

From ChEMBL document CHEMBL3988442, “University of Dundee, Small-Polar-MMV Screening Library” (2021).

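Phenotypic screen: M. tuberculosis growth, glucose 7H9 medium, 3 days; the read-out is not stated. Tested at 50 µM. Direction is inferred from retests: higher values go with more growth inhibition. Of about 69,000 compounds tested this way, about 760 (1.1%) reached 50% or more in at least one test.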

Values are the deposited “Percent Effect”, in %.
The controls that fix the scale are not given in the record; negative values are as filed.
Compounds were drawn at random from those tested, without regard to their results.
Two or more numbers in one place are separate tests of the same structure; such repeats can differ widely.

Result for CCC/N=c1/c(NC(=O)NCCOC)c(O)oc2ccccc12 was 20.19%. For O=C(CN1CCNC1=O)N1CCc2nnc(-c3ccccc3)n2CC1 the result was -3.131% & -7.369%. Result for [H][C@]12CCCCN1CCC[C@@]2(O)Cn1cnc(Cl)c1Cl was -11.66% & -2.689%. For CC(=O)N(CCc1ccccc1)CC(=O)NC(C)(C)C#N the result was -2.475%. Cc1cc(C(=O)N(C)CCCn2cccn2)nc(N)n1 gave 6.962%. Cc1ccc(-c2ncc(C(=O)NCCS(N)(=O)=O)s2)c(C)c1 gave 18.76%.

For CC(=O)N1CCN(Cc2cccc3c2sc2ccccc23)CC(O)C1 (stereo not given) the result was -19.58%. O=C(Cc1ccccc1)NCCNS(=O)(=O)C1CCCCC1 read 16.75%. O=C(O)C(F)(F)F.[H][C@@]12CCN(c3cccc(F)c3)C[C@@]1([H])O[C@H](C(=O)N1CCCC1)C2 gave 9.454%. Result for Cn1c(C2CC2)nc2c1CCN(CC(=O)Nc1ccncc1)C2 was -13.1%. O=C(NCCNC1CCCCC1)c1cccs1 read -4.897%. Cc1ccc(CN2CCn3c(COc4cccnc4)cnc3C2C)o1.O=C(O)C(F)(F)F.O=C(O)C(F)(F)F (stereo not given) read -20.6%.

Result for [H][C@@]12COC[C@]1(C(=O)NCc1ccco1)CN(Cc1nc(C)cs1)C2 was -66.21%. CCS(=O)(=O)CCSc1ccc(Cl)cc1 gave 2.464%. With O=C(O)C(F)(F)F.[H][C@]12CCN(C(=O)c3cc[nH]n3)CC[C@@]1([H])S(=O)(=O)N(Cc1ccncc1)C2 the screen gave -0.4066% & 7.957%. Result for CC(C)n1cnnc1CN(C)Cc1ccoc1 was -4.227% & 3.252%. For CCNC(=O)CNS(=O)(=O)Cc1cc(-c2ccccc2)no1 the result was 24.42%. With Cc1ccc(CN2CC3(CCNCC3)CCC2=O)c(F)c1F the screen gave -8.555%.

O=C(CC1CC1)NCc1cn2c(n1)CN(CC1CC1)CC2.O=C(O)C(F)(F)F read 15.57%. Result for CCn1nc(C)c2c1cnn2CC(=O)Nc1ccc(OC)cc1C was 11.5%. For O=C(O)C(F)(F)F.[H][C@]12CCN(c3ccc(C)nn3)C[C@@]1([H])CN(Cc1cc[nH]n1)C2 the result was 24.04%. With Cc1nc(NCC2CC2)nc2c1COCC21CCNC1 (stereo not given) the screen gave -23.94%. CCn1cc(NC(=O)NCc2ccc3c(c2)OCCO3)cn1 gave -10.65%. Result for COCCN1C[C@@H](c2ccccc2)[C@@]2(CCN(CC(=O)N(C)C)C2=O)C1.O=C(O)C(F)(F)F was 0.6787%.

For O=C(CCc1nnc(-c2ccccc2)o1)N1CCN(CC2CC2)CC1 the result was -25.6%. Result for Cc1nc2ccccc2nc1CN1CCCC1Cn1cccn1 (stereo not given) was 3.664%. CC1=NOC(C(=O)N2CCC(O)(c3ccc4nc(C)ccc4c3)CC2)C1 (stereo not given) read -33.6%. With COc1cc(-c2n[nH]c(CN)n2)cc(OC)c1OC the screen gave -12.57%. With O=C(CCc1nc2ccccc2[nH]1)N1CCCC(n2cccn2)C1 (stereo not given) the screen gave 35.25%. O=C(O)C(F)(F)F.[H][C@@]12C[C@H](C(=O)NC3CC3)CN(Cc3cccc4ccccc34)[C@]1([H])CCO2 read 2.5% & 4.946%.

For CCCn1ncc(C(=O)N(C)Cc2cc(C3CC3)[nH]n2)c1C the result was -6.852%. With CCC(=O)N1CCc2onc(CNS(C)(=O)=O)c2C1 the screen gave -18.15%. CCc1nc(C2CCCN2C(=O)CCCOc2cccc(F)c2)no1 (stereo not given) read 41.43%. CC(O)CN1CCC(CN(C)Cc2ccc(C#N)cc2F)CC1 (stereo not given) gave 3.883%. Result for COc1cc(C)c(CN2CCC3(CC2)C(C(=O)O)CC(=O)N3C)cc1C (stereo not given) was -30.46%. N#Cc1ccc(C(=O)N2CCn3cc(CN4CCCCC4)nc3C2)cc1 read -20.19%.

For Cc1ncccc1C(=O)NC1(c2cccc(F)c2)CCOCC1 the result was -11.81% & 5.018%. Result for O=C(O)C(F)(F)F.[H][C@@]12COC[C@]1(CNC(=O)COC)CN(c1ncc(F)cn1)C2 was -11.54%. COCCNC(=O)CSCc1nc(O)c2cc(C(C)C)sc2n1 read -21.11%. Cc1nc(NC(=O)C(C)N2CCN(c3ncccn3)CC2)sc1C (stereo not given) read 9.388%. NC(=O)C1CCN(C(=O)c2ccccc2OCc2ccccc2Cl)CC1 gave -33.47%. For O=C1CCC2(CCN(Cc3ccc(F)cc3Cl)CC2)CN1CCO the result was 15.62%.

With CCn1cc(CN2CCCC(COc3ccccc3F)C2)cn1 (stereo not given) the screen gave 5.18% & 18%. Cc1ccc(C(=O)N2CCCCC2CN(C)C)cc1 (stereo not given) gave 15.39%. Result for CCN(c1ccc(C(=O)N2CCC(C)CC2)cc1)S(=O)(=O)CC was -15.82%. CNc1snc(C)c1C(=O)N1CCCC(n2cc(C)cn2)C1 (stereo not given) read -8.289%. CCOCC1CN(CC2CC2)Cc2nn(CC3CC3)cc21.O=C(O)C(F)(F)F (stereo not given) gave 25.66%. Result for O=C(O)C(F)(F)F.[H][C@@]12CN(c3nnc(C)s3)C[C@H](C(=O)NCC3CC3)[C@]1([H])CCO2 was -2.763%.

CNc1cc(C2CCN2c2ncccn2)nc(C)n1 (stereo not given) gave 18.09%. Result for CNCc1cc(C)n(-c2ccccc2OC)c1C was 55.42%. CC(C)CC(=O)N1CCN(C(=O)NC(C)C)CC2(CC(=O)N(C)C2)C1 (stereo not given) read 1.156%. [H][C@]12CC[C@]([H])(CN(Cc3c(C)noc3C)C1)N(Cc1ccc(F)c(C)c1)C2 gave 34.99%. Result for Cn1nnc2c1C(COCc1ccccn1)CN(C(=O)c1ccsc1)C2.O=C(O)C(F)(F)F (stereo not given) was 19.94% & -3.862%. Result for CCc1c(-c2ccccc2)nc2c(c(C)c(C)n2CCN(C)C)c1N was 22.16% & 29.42%.

Cc1nc(C(C)C)sc1C(C)N(C)C(=O)c1ccc(=O)n(C)c1 (stereo not given) read 39.33%.

Once more, the final 5:

Compound	percent effect
CC(C)CC(=O)N1CCN(C(=O)NC(C)C)CC2(CC(=O)N(C)C2)C1 (stereo not given)	1.156%
[H][C@]12CC[C@]([H])(CN(Cc3c(C)noc3C)C1)N(Cc1ccc(F)c(C)c1)C2	34.99%
Cn1nnc2c1C(COCc1ccccn1)CN(C(=O)c1ccsc1)C2.O=C(O)C(F)(F)F (stereo not given)	19.94% & -3.862%
CCc1c(-c2ccccc2)nc2c(c(C)c(C)n2CCN(C)C)c1N	22.16% & 29.42%
Cc1nc(C(C)C)sc1C(C)N(C)C(=O)c1ccc(=O)n(C)c1 (stereo not given)	39.33%